{"source": "paper PMC6735945", "system": "Hsmar1 transposase (wild type)", "assay": "EMSA", "conditions": "5 mM Ca2+; Fusion: 20 mM HEPES pH 7.5, 250 mM KCl, 2 mM MgCl2, 0.01% Triton X-100, 0.1 mg/ml BSA, 10% glycerol, 37 C 20 min; native transposase: 20 mM HEPES pH 7.5, 100 mM NaCl; recombinant protein", "note": "Construct, isoform or probe ends are uncertain for at least one entry. At least one verdict was read from the data and is not stated in words by the source.", "data": [{"sequence": "ACTAGTGGATCCCCCGGGCTGCAGGAATTCTATTAGGTTGGTGCAAAAGTAATTGCGGTTTTGGATCCCTGT (double strand) [transposon-end oligoduplex]", "values": [{"measurement": "binding result", "value": "binds"}]}]}
